# Screen size: about 390,000 compounds; about 4,000 (1%) were called active. Inconclusive results, whose numbers are uncertain, are shown with a selection of clear calls. Calls follow the shape of the dose curve; as a rule, active = well fitted inhibition curve with a large enough effect; inconclusive = small, poorly fitted or top-dose-only effect, or another doubt; inactive = no such curve, though single readings can be large or run the other way. A potency beside an inconclusive call is a rough fit, not a confirmed value.
# Sequences of proteins named here, by UniProt entry; tags and fusion partners are left off. A change or cut given only in a name is not applied to a line headed by its entry.
# UniProt Q9UNA4: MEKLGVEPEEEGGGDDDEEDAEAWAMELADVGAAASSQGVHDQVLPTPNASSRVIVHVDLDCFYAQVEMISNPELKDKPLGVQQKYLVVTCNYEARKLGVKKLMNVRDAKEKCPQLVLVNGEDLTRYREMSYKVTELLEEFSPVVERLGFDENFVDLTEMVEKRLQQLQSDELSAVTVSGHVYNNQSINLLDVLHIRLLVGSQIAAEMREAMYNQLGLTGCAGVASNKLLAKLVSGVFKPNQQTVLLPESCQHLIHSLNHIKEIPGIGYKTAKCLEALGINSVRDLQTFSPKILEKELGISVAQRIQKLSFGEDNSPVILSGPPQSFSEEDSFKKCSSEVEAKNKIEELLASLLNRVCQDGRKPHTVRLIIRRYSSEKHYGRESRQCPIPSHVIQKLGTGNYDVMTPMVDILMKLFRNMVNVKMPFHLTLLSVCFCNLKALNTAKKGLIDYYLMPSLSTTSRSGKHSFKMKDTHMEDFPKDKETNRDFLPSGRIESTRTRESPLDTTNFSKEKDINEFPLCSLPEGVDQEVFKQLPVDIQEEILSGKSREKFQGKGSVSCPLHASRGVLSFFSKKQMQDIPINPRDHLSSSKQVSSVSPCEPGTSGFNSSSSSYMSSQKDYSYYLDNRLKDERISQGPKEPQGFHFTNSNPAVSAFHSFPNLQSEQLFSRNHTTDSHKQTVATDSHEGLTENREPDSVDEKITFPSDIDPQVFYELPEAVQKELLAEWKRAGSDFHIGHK
# Molecular target: DNA polymerase iota (Homo sapiens) (UniProt Q9UNA4)
# Experiment: qHTS for Inhibitors of Polymerase Iota
# Conditions: Pol iota fluorescent replication assay, 10 min; series mostly up to 115 µM; activity, negative = inhibition: at the top concentration
# Procedure, shortened: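 Fluorescent replication assay read twice, at 0 min and 10 min after adding 50 nM (final) substrate. Enzyme (10 nM) and compounds were first incubated 15 min at room temperature; enzyme-free buffer wells were negative controls.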
# Potency is read from the fitted curve at half-maximal effect.
Compound,"activity, negative = inhibition",Potency
CCCS(=O)(=O)Nc1cc(-c2cn3cccc(C)c3n2)ccc1C,inactive: 1.94%,–
Oc1ccc(Cl)cc1C1C=C(c2ccc3c(c2)OCO3)NC(c2ccc(F)c(Br)c2)N1 (centres undefined),–,"inconclusive: 10 µM [inhibitor, full curve, poor fit]"
CCOc1cc(/C=C(\C(=O)O)c2ccc(S(=O)(=O)N3CCCC3)s2)ccc1OC,inactive: 7.32%,–
CCOc1cccc(=O)c2c(C)n(-c3ccc(C(=O)O)cc3)c(C)c12,–,"inconclusive: 14.1 µM [inhibitor, partial curve, poor fit]"
CC(=O)Oc1cc(C(=O)OCC(=O)NC23CC4CC(CC(C4)C2)C3)cc(OC(C)=O)c1OC(C)=O,–,"inconclusive: 8.91 µM [inhibitor, full curve, poor fit]"
Cc1ccc(C(=O)N2CCN(S(=O)(=O)c3ccccc3[N+](=O)[O-])CC2)o1,–,"inconclusive: 11.2 µM [inhibitor, partial curve, poor fit]"
COC(=O)c1cnc(N)s1,–,"inconclusive: 17.8 µM [inhibitor, partial curve, poor fit]"
Cc1ccc(C2=NN3C(C2)c2ccccc2OC32C(=O)Nc3ccccc32)cc1 (centres undefined),inactive: 22.9%,–
COCCNC(=O)/C(C#N)=C/c1ccccc1Br,inactive: 62.5%,–
O=C1COc2ccc(C(=O)COC(=O)c3cccnc3Cl)cc2N1,–,"inconclusive: 14.1 µM [inhibitor, single point]"
COc1cccc(C(=O)NCCSc2c(-c3ccc(F)cc3)[nH]c3ccccc23)c1OC,inactive: -4.75%,–
COc1ccc2c(c1)c(=O)oc1c(C)c(OCc3ccc(C(=O)O)cc3)ccc12,–,"inconclusive: 3.16 µM [inhibitor, full curve, poor fit]"
O=C(NCc1ccco1)c1cc(=O)c2ccccc2o1,inactive: -12.4%,–
O=S(=O)(c1ccc2c(c1)CCN2)N1CCCC1,–,"inconclusive: 100 µM [inhibitor, single point]"
COc1cc(/C=N/NC(=O)c2ccc(CSc3nc4ccccc4[nH]3)cc2)ccc1O,–,"inconclusive: 14.1 µM [inhibitor, partial curve, poor fit]"
O=c1c(CO)cc(CO)cc(CO)c1O,–,"inconclusive: 28.2 µM [inhibitor, partial curve, poor fit]"
CCCN(CCC)CCCNC(=O)c1cc2cc3ccc(OC)cc3nc2o1,–,"inconclusive: 44.7 µM [inhibitor, partial curve]"
O=C(N/N=C/C=C/c1ccco1)c1ccncc1,–,active: 15.8 µM
COc1cccc2c(C)nc(Nc3nc(CSc4nnc(C)s4)cc(=O)[nH]3)nc12,–,"inconclusive: 31.6 µM [inhibitor, single point]"
Cc1ccc(OCC(=O)Nc2ccccc2C(=O)N2CCCC2)cc1,–,"inconclusive: 89.1 µM [inhibitor, partial curve, poor fit]"
O=C(CCc1nnc(CCCc2ccccc2)o1)NCC(F)(F)F,–,"inconclusive: 100 µM [inhibitor, single point]"
COc1ccc(-c2cc(-c3ccc(C)cc3)n[nH]2)c(O)c1,–,"inconclusive: 79.4 µM [inhibitor, partial curve]"

Compound,"activity, negative = inhibition",Potency
CCc1ccc([C@H]2C(C(=O)O)=C[C@@H](CC3CCCC3)N2S(=O)(=O)c2ccc(C)cc2)cc1,–,"inconclusive: 39.8 µM [inhibitor, single point]"
CC(C)(C)OC(=O)NCCCCCO,–,"inconclusive: 25.1 µM [inhibitor, partial curve, poor fit]"
c1ccc2c(c1)OCC(c1nnc3sc(-c4cnccn4)nn13)O2 (centres undefined),–,"inconclusive: 12.6 µM [inhibitor, partial curve, poor fit]"
C=CCNC(=O)c1oc2ccc(S(=O)(=O)N(CC)CC)cc2c1C,–,"inconclusive: 112 µM [inhibitor, partial curve, poor fit]"
CC(=O)NS(=O)(=O)c1ccc2c(c1)C(=O)c1cc(S(=O)(=O)NC(C)=O)ccc1-2,–,"inconclusive: 44.7 µM [inhibitor, single point]"
CCOc1ccc(S(=O)(=O)NCc2ccco2)c2ccccc12,inactive: -7.24%,–
O=C1CCC(=O)N1CN(C(=O)c1ccco1)c1ccc(Cl)c(Cl)c1,–,"inconclusive: 3.16 µM [inhibitor, partial curve, poor fit]"
Fc1ccc(CNc2ncnc3nc[nH]c23)cc1,–,"inconclusive: 79.4 µM [inhibitor, single point]"
COC(=O)c1nn(-c2ccc(OC)cc2)ccc1=O,–,"inconclusive: 14.1 µM [inhibitor, partial curve, poor fit]"
O=C(COc1ccc2ccc(=O)oc2c1)Nc1ccc2c(c1)OCCO2,–,"inconclusive: 56.2 µM [inhibitor, partial curve, poor fit]"
O=C1S/C(=C\c2ccc(N3CCOCC3)o2)C(=O)N1Cc1ccc(F)cc1,–,"inconclusive: 7.94 µM [inhibitor, full curve, poor fit]"
Cc1ccc(/C=C\c2nccc3c2[nH]c2ccccc23)cc1,–,"inconclusive: 79.4 µM [inhibitor, single point]"
Cc1cccc(NC(=O)CN2C(=O)N/C(=C\c3ccccc3OCc3ccc(C(=O)O)cc3)C2=O)c1,–,"inconclusive: 22.4 µM [inhibitor, full curve, poor fit]"
COc1ccc2c(c1)CC(C(=O)NCCCN1CCN(c3cccc(Cl)c3)CC1)CO2 (centres undefined),–,"inconclusive: 5.01 µM [inhibitor, partial curve, poor fit]"
Cc1c(C(=O)OCC(=O)c2ccc3c(c2)OCCO3)oc2ccccc12,–,"inconclusive: 12.6 µM [inhibitor, partial curve, poor fit]"
N/C(=N\OC(=O)c1ccc2c(c1)OCO2)c1cccc([N+](=O)[O-])c1,inactive: 11.4%,–
COCCNc1nc2c(c(=O)n(Cc3ccccc3F)c(=O)n2C)n1C,inactive: -19%,–
CN(C(=O)c1ccco1)c1ccccc1C(=O)O,–,"inconclusive: 39.8 µM [inhibitor, partial curve, poor fit]"
CC(=O)NC(CCS(C)(=O)=O)C(=O)Nc1ccc(Oc2ccccc2)cc1 (centres undefined),–,"inconclusive: 7.94 µM [inhibitor, partial curve, poor fit]"
Cc1ccc(S(=O)(=O)N(C)C)cc1NC(=O)C(C)OC(=O)/C=C/c1cccs1 (centres undefined),–,"inconclusive: 89.1 µM [inhibitor, partial curve, poor fit]"
O=S(=O)(Nc1nc2ccccc2nc1OCC(F)(F)F)c1cccs1,–,"inconclusive: 35.5 µM [inhibitor, partial curve, poor fit]"

Compound,"activity, negative = inhibition",Potency
O=C(O)c1ccc(N2C(=O)CC(N3CCN(c4ccc(Cl)cc4)CC3)C2=O)cc1 (centres undefined),inactive: 2.27%,–
CN(C)CCCCCCNc1nccc(N2CCN(C)CC2)n1,inactive: 88.9%,–
CC(C)CC(=O)NCC(C)NC(=O)CC(C)C (centres undefined),–,"inconclusive: 31.6 µM [inhibitor, partial curve, poor fit]"
CCN(CC)C(=O)N1CCN(C)CC1,–,"inconclusive: 89.1 µM [inhibitor, single point]"
COc1ccc(-n2nc(C(=O)Nc3ccc(Cl)cn3)c3c4ccccc4n(C)c3c2=O)cc1,inactive: 28.2%,–
Cc1ccc(S(=O)(=O)N/N=C\c2ccc(C)o2)cc1,–,"inconclusive: 20 µM [inhibitor, full curve, poor fit]"
COc1cccc(CNC(=O)c2ccc3c(=O)n4nc(Nc5ccccc5)sc4nc3c2)c1,inactive: 10.5%,–
Cc1ccc(N2CCN(C(=O)c3cnn(-c4ccc(F)cc4F)c3C3CCN(C(=O)OC(C)(C)C)CC3)CC2)c(C)c1,inactive: 24.9%,–
CN(Cc1ccccc1)S(=O)(=O)c1ccc2[nH]c3c(c2c1)CCCCC3,–,"inconclusive: 14.1 µM [inhibitor, partial curve, poor fit]"
O=C(Nc1ccc(S(=O)(=O)N2CCOCC2)cc1)c1ccc([N+](=O)[O-])o1,–,"inconclusive: 31.6 µM [inhibitor, single point]"
COc1ccc2nc(C)cc(Nc3cccc(C(=O)O)c3)c2c1,–,"inconclusive: 56.2 µM [inhibitor, partial curve, poor fit]"
CN(c1ccccc1C(=O)Nc1ccc(S(=O)(=O)N2CCCC2)cc1)S(C)(=O)=O,–,"inconclusive: 89.1 µM [inhibitor, single point]"
CCNc1ccc(C(=O)OCC)cc1NC(=O)c1cccc(S(=O)(=O)N2CCOCC2)c1,–,"inconclusive: 112 µM [inhibitor, single point]"
CCOC(=O)C1=C(CSc2nc3c(cc2C#N)CN(C)CC3)OC(N)=C(C#N)C1c1ccc(F)cc1 (centres undefined),–,"inconclusive: 10 µM [inhibitor, full curve, poor fit]"
CCOc1cc(/C=C2\C(=O)N(CCC#N)N=C2C)ccc1OCC(N)=O,–,"inconclusive: 10 µM [inhibitor, partial curve, poor fit]"
O=C(O)c1cccc(COc2ccc3c(c2)CCC3)c1,–,"inconclusive: 44.7 µM [inhibitor, partial curve]"
COc1ccc(/C=C2/C(=O)N(c3c(F)c(F)c(F)c(F)c3F)N=C2C)cc1,–,"inconclusive: 39.8 µM [inhibitor, single point]"
Cc1ccc(Nc2nc3ccccc3c3nnc(C)n23)c(C)c1,inactive: 35.9%,–
Cc1ccccc1-c1nn2c(-c3ccccc3)nnc2s1,–,"inconclusive: 15.8 µM [inhibitor, partial curve, poor fit]"
COc1ccc(NC(=O)c2c(C)oc3ccc(O)c(CN4CCN(Cc5ccccc5)CC4)c23)cc1Cl,–,"inconclusive: 79.4 µM [inhibitor, single point]"

# Complete entries from above.
# Cc1ccc(Nc2nc3ccccc3c3nnc(C)n23)c(C)c1 in the list: activity, negative = inhibition: inactive: 35.9%
# CC(C)CC(=O)NCC(C)NC(=O)CC(C)C (centres undefined) in the list: Potency: inconclusive: 31.6 µM [inhibitor, partial curve, poor fit]
# Cc1ccc(S(=O)(=O)N/N=C\c2ccc(C)o2)cc1 in the list: Potency: inconclusive: 20 µM [inhibitor, full curve, poor fit]

# From PubChem BioAssay AID588590 (National Center for Advancing Translational Sciences (NCATS), 2011)
